Experimental data published in PubChem BioAssay AID1259415 (National Center for Advancing Translational Sciences (NCATS), 2018).
The campaign covered roughly 410,000 compounds. About 18,000 (4.4%) were called active. Inconclusive results, whose numbers are uncertain, are shown with a selection of clear calls. Rule as the data show it: active = activity change below about -60%; inconclusive = no clear call, values can overlap the other calls; inactive = above about -39%.

Assay: qHTS Assay for inhibitors of the human cytomegalovirus (HCMV)
Details: HFF cells, HCMV-luciferase reporter, 72 h; at 57.5 µM; active compounds read low
Summary of the method: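 Two compound doses tested in HFFs infected with HCMV-luciferase, MOI 1 PFU/cell, 72 h at 37C. Lysate luminescence read with OneGlo; data normalized against buffer-only and 10uM Salinomycin inhibitor controls.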
% is scaled to controls: 0 for no effect and ±100 for the full control effect.

| Compound | activity change, negative = inhibition |
| --- | --- |
| CCOC(=O)c1c(C)[nH]c(C)c1S(=O)(=O)N1CCCC(C(=O)NCc2cccc(OC)c2)C1 (stereo not given) | inactive: -0.903% |
| COc1cc(OC)c(C2Nc3cccc4cccc(c34)N2)c(OC)c1 | inconclusive: -51% |
| CSC1=C(C#N)C2(CCCCC2)C(C(=O)Nc2ccccc2)=C(C)N1 | inactive: -20.4% |
| CCCS(=O)(=O)c1nc(S(=O)(=O)c2ccc(C)cc2)c(N(C)Cc2ccccc2)s1 | inconclusive: -49.1% |
| C=CCn1c(C)cc(-c2csc(NC)n2)c1C | inconclusive: -51.4% |
| CC(=O)c1cccc(CN2CCCC(C(=O)Nc3ccc(-c4ccco4)cc3)C2)c1 (stereo not given) | inconclusive: -44.1% |
| O=C1C2CCCN2C(=O)N1CCCCN1CCN(c2cccc(Cl)c2)CC1 (stereo not given) | inactive: -17.2% |
| Cc1nc2ccc(NC(=O)N3CCCCC3)cc2nc1C | inactive: -5.04% |
| Cn1nc(C(=O)Nc2nc(-c3ccc(F)cc3)cs2)ccc1=O | inconclusive: -43% |
| C=C(Br)Cn1cnc2ccccc21 | inactive: -36% |
| Cc1ccc(S(=O)(=O)N2CCN(CC(=O)N3CCCC3)CC2)c(C)c1 | inconclusive: -48% |
| N#C/C(=N/Nc1ccc(OC(F)(F)F)cc1)C(N)=S | active: -98.4% |
| Cc1ccc(CN2CCN(Cc3ccc(-n4cccn4)cc3C)CC2CCO)cc1 (stereo not given) | inconclusive: -58.4% |
| O=C(NCc1cccc(Cl)c1)c1ccncc1 | inactive: -18.4% |
| CC(C)OCCCNC(=O)CN1C(=O)COc2ccc(S(=O)(=O)N3CCCCCC3)cc21 | inconclusive: -46.8% |
| CCn1cc(C(=O)O)c(=O)c2cc(F)c(N/N=C/c3ccccc3)cc21 | inconclusive: -43.4% |
| COc1ccc(CNC(=O)CCC2N=C3c4ccccc4N=C(SCC(=O)NCC4CCCO4)N3C2=O)cc1 (stereo not given) | inconclusive: -50.2% |
| COc1ccc(C(=O)CSc2nnc(NC(=O)C3CC(=O)N(c4ccccc4C)C3)s2)cc1 (stereo not given) | inactive: -20.5% |
| COc1ccc(C(=O)Cc2ccc(OC)c(OC)c2)c(OC)c1 | inconclusive: -53.5% |
| Cc1ccc(NC(=O)CCCN2C(=S)NC(C)(C)CC2C)cc1 (stereo not given) | inconclusive: -56% |
| Cc1ccc2cc(C)c(SCC#N)nc2c1 | inconclusive: -40.4% |
| COc1ccccc1N(CC(=O)Nc1ccccc1C(F)(F)F)S(=O)(=O)c1cccs1 | inconclusive: -53.5% |
| Cc1cc(C(=O)NCCCN2CCN(c3cc(Cl)ccc3C)CC2)n(-c2ccccc2)n1 | inactive: 0.482% |

Retrieved one by one from the list above:

| Compound | activity change, negative = inhibition |
| --- | --- |
| C=C(Br)Cn1cnc2ccccc21 | inactive: -36% |
| O=C1C2CCCN2C(=O)N1CCCCN1CCN(c2cccc(Cl)c2)CC1 (stereo not given) | inactive: -17.2% |
| CCCS(=O)(=O)c1nc(S(=O)(=O)c2ccc(C)cc2)c(N(C)Cc2ccccc2)s1 | inconclusive: -49.1% |

Remaining list, next part

| Compound | activity change, negative = inhibition |
| --- | --- |
| Cc1cc(-c2ccccc2)cc(C)n1 | inconclusive: -47.6% |
| COc1cc(NC(=O)c2ccc(C)cc2C)ccc1NC(=O)c1cccs1 | inactive: -14.1% |
| O=C(N/N=C/c1cccnc1)c1cc(-c2ccccc2)nc2ccccc12 | inactive: 1.71% |
| CC(=O)c1ccc(N2CCN(S(=O)(=O)c3cc(-c4cc(C)no4)ccc3C(C)C)CC2)cc1 | inconclusive: -44% |
| Cc1ccc(NS(=O)(=O)c2ccc(Cl)c(C(=O)Nc3ccccc3-c3nc4ccccc4[nH]3)c2)cc1C | active: -84.7% |
| CCn1c(O)c(/C=N/NC(=O)c2ccccc2)c(=O)n(CC)c1=S | inactive: 73.2% |
| COc1ccc2[nH]c(=O)c(CN(Cc3cccs3)C(=S)Nc3cccc(C)c3)cc2c1 | active: -65.7% |
| COc1cccc(CNS(=O)(=O)c2ccc(N3CCCC3=O)cc2)c1 | inconclusive: 0% |
| COc1ccc(NC(=S)NCCc2ccc(Cl)cc2)c(OC)c1 | inactive: -27.5% |
| Cc1ccc(CNC(=O)C2CCN(S(=O)(=O)c3cn(C)cn3)CC2)cc1 | inconclusive: -41.8% |
| Cc1ccccc1CC(=O)c1ccc(O)c(C)c1O | inactive: 12.1% |
| CCCn1c2ccccc2c2cnn(CC(=O)N3CCCC(C)C3)c(=O)c21 (stereo not given) | active: -61.8% |
| COc1ccc(OC)c2[nH]c(=O)c(CCNC(=O)c3cccs3)cc12 | inconclusive: -55.6% |
| CSCC[C@H](NC(=O)OC(C)(C)C)c1nnc(SCc2ccc(F)cc2)o1 | inconclusive: -58.1% |
| CCCC(=O)N1CCN(c2nc3ccc(Br)cc3s2)CC1 | active: -68.1% |
| Cn1c(CSCc2ccccc2)n[nH]c1=S | inconclusive: -46.4% |
| Nc1nc(-c2cc(Cl)cc(Cl)c2OC(F)F)cs1 | inconclusive: -40.3% |
| Cc1cccc(NC(=O)CSc2nc(C)c(CC(=O)c3ccc(Br)cc3)c(C)c2C#N)c1C | active: -79.1% |
| COc1ccc(C(=O)Nc2ccc(Oc3ncnc4sc(-c5ccccc5)cc34)cc2)cc1OC | inconclusive: -43.2% |
| COc1ccccc1N1CCN(CC(O)c2c(C)[nH]c3ccccc23)CC1 (stereo not given) | inconclusive: -50.2% |
| O=C(Nc1ncccn1)c1cccc(F)c1 | active: -75.6% |
| COc1ccc(C=NNc2ccc([N+](=O)[O-])cc2S(=O)(=O)Nc2ccccc2C(=O)O)cc1OC | inconclusive: -43.4% |
